{
  "source": "patent US9926581B2",
  "about": "“Fagopyritol synthase genes and uses thereof” (Cornell Research Foundation, Inc., priority 2002, dated 2018)",
  "test_system": "soybean explants",
  "assay": "Soybean explant feeding 3 days with 50 mM cyclitol in 1% sucrose, slow drying time course, soluble carbohydrates in axis, cotyledon, seed coat and leaf",
  "key": {"[1]": {"conditions": "3 days transport of sucrose (1%) and D-pinitol (50 mM), after 14 days slow drying, Rep 2"}, "[2]": {"conditions": "3 days transport of sucrose (1%) and D-pinitol (50 mM), before slow drying, Rep 1"}, "[3]": {"conditions": "3 days transport of sucrose (1%) and D-pinitol (50 mM), before slow drying, Rep 2"}, "[4]": {"conditions": "3 days transport of sucrose (1%) and myo-inositol (50 mM), after 2 days slow drying, Rep 1"}, "[5]": {"conditions": "3 days transport of sucrose (1%) and myo-inositol (50 mM), after 2 days slow drying, Rep 2"}, "[6]": {"conditions": "3 days transport of sucrose (1%) and myo-inositol (50 mM), after 4 days slow drying, Rep 1"}, "[7]": {"conditions": "3 days transport of sucrose (1%) and myo-inositol (50 mM), after 4 days slow drying, Rep 2"}, "[8]": {"conditions": "3 days transport of sucrose (1%) and myo-inositol (50 mM), after 14 days slow drying, Rep 1"}, "[9]": {"conditions": "3 days transport of sucrose (1%) and myo-inositol (50 mM), after 14 days slow drying, Rep 2"}, "[10]": {"conditions": "3 days transport of sucrose (1%) and myo-inositol (50 mM), before slow drying, Rep 1"}, "[11]": {"conditions": "3 days transport of sucrose (1%) and myo-inositol (50 mM), before slow drying, Rep 2"}, "[12]": {"conditions": "3 days transport of sucrose (1%) without cyclitols, after 2 days slow drying, Rep 1"}, "[13]": {"conditions": "3 days transport of sucrose (1%) without cyclitols, after 2 days slow drying, Rep 2"}, "[14]": {"conditions": "3 days transport of sucrose (1%) without cyclitols, after 4 days slow drying, Rep 1"}, "[15]": {"conditions": "3 days transport of sucrose (1%) without cyclitols, after 4 days slow drying, Rep 2"}, "[16]": {"conditions": "3 days transport of sucrose (1%) without cyclitols, after 14 days slow drying, Rep 1"}, "[17]": {"conditions": "3 days transport of sucrose (1%) without cyclitols, after 14 days slow drying, Rep 2"}, "[18]": {"conditions": "3 days transport of sucrose (1%) without cyclitols, before slow drying, Rep 1"}, "[19]": {"conditions": "3 days transport of sucrose (1%) without cyclitols, before slow drying, Rep 2"}},
  "data": [
    {"smiles": "OC[C@H]1O[C@H](OC[C@H]2O[C@H](O[C@]3(CO)O[C@H](CO)[C@@H](O)[C@@H]3O)[C@H](O)[C@@H](O)[C@@H]2O)[C@H](O)[C@@H](O)[C@H]1O", "note": "[Raffinose, raffinose]", "values": [
      {"measurement": "Accumulation of soluble carbohydrates in soybean cotyledon", "setting": "[1]", "result": 162.90, "unit": "μg/cotyledon"},
      {"measurement": "Accumulation of soluble carbohydrates in soybean seed coat", "setting": "[1]", "result": 18.53, "unit": "μg/seed coat"},
      {"measurement": "Accumulation of soluble carbohydrates in soybean axis", "setting": "[2]", "result": 0, "unit": "μg/axis"},
      {"measurement": "Accumulation of soluble carbohydrates in soybean cotyledon", "setting": "[2]", "result": 0, "unit": "μg/cotyledon"},
      {"measurement": "Accumulation of soluble carbohydrates in soybean axis", "setting": "[3]", "result": 0, "unit": "μg/axis"},
      {"measurement": "Accumulation of soluble carbohydrates in soybean cotyledon", "setting": "[3]", "result": 4.09, "unit": "μg/cotyledon"},
      {"measurement": "Accumulation of soluble carbohydrates in soybean axis", "setting": "[4]", "result": 5.44, "unit": "μg/axis"},
      {"measurement": "Accumulation of soluble carbohydrates in soybean cotyledons", "setting": "[4]", "result": 29.20, "unit": "μg/cotyledon"},
      {"measurement": "Accumulation of soluble carbohydrates in soybean seed coats", "setting": "[4]", "result": 1.58, "unit": "μg/seed coat"},
      {"measurement": "Accumulation of soluble carbohydrates in soybean axis", "setting": "[5]", "result": 1.83, "unit": "μg/axis"},
      {"measurement": "Accumulation of soluble carbohydrates in soybean cotyledons", "setting": "[5]", "result": 89.65, "unit": "μg/cotyledon"},
      {"measurement": "Accumulation of soluble carbohydrates in soybean seed coats", "setting": "[5]", "result": 0, "unit": "μg/seed coat"},
      {"measurement": "Accumulation of soluble carbohydrates in soybean axis", "setting": "[6]", "result": 6.37, "unit": "μg/axis"},
      {"measurement": "Accumulation of soluble carbohydrates in soybean cotyledons", "setting": "[6]", "result": 122.10, "unit": "μg/cotyledon"},
      {"measurement": "Accumulation of soluble carbohydrates in soybean axis", "setting": "[7]", "result": 7.57, "unit": "μg/axis"},
      {"measurement": "Accumulation of soluble carbohydrates in soybean cotyledons", "setting": "[7]", "result": 351.33, "unit": "μg/cotyledon"},
      {"measurement": "Accumulation of soluble carbohydrates in soybean seed coats", "setting": "[7]", "result": 0, "unit": "μg/seed coat"},
      {"measurement": "Accumulation of soluble carbohydrates in soybean axis", "setting": "[8]", "result": 14.51, "unit": "μg/axis"},
      {"measurement": "Accumulation of soluble carbohydrates in soybean cotyledons", "setting": "[8]", "result": 165.12, "unit": "μg/cotyledon"},
      {"measurement": "Accumulation of soluble carbohydrates in soybean seed coats", "setting": "[8]", "result": 7.44, "unit": "μg/seed coat"},
      {"measurement": "Accumulation of soluble carbohydrates in soybean axis", "setting": "[9]", "result": 11.98, "unit": "μg/axis"},
      {"measurement": "Accumulation of soluble carbohydrates in soybean cotyledons", "setting": "[9]", "result": 218.44, "unit": "μg/cotyledon"},
      {"measurement": "Accumulation of soluble carbohydrates in soybean seed coats", "setting": "[9]", "result": 24.24, "unit": "μg/seed coat"},
      {"measurement": "Accumulation of soluble carbohydrates in soybean axis", "setting": "[10]", "result": "Tr"},
      {"measurement": "Accumulation of soluble carbohydrates in soybean cotyledons", "setting": "[10]", "result": 0, "unit": "μg/cotyledon"},
      {"measurement": "Accumulation of soluble carbohydrates in soybean axis", "setting": "[11]", "result": 0, "unit": "μg/axis"},
      {"measurement": "Accumulation of soluble carbohydrates in soybean cotyledons", "setting": "[11]", "result": 0, "unit": "μg/cotyledon"},
      {"measurement": "Accumulation of soluble carbohydrates in soybean axis", "setting": "[12]", "result": 5.83, "unit": "μg/axis"},
      {"measurement": "Accumulation of soluble carbohydrates in soybean cotyledon", "setting": "[12]", "result": 34.55, "unit": "μg/cotyledon"},
      {"measurement": "Accumulation of soluble carbohydrates in soybean seed coats", "setting": "[12]", "result": 3.50, "unit": "μg/seed coat"},
      {"measurement": "Accumulation of soluble carbohydrates in soybean axis", "setting": "[13]", "result": 8.95, "unit": "μg/axis"},
      {"measurement": "Accumulation of soluble carbohydrates in soybean cotyledon", "setting": "[13]", "result": 85.98, "unit": "μg/cotyledon"},
      {"measurement": "Accumulation of soluble carbohydrates in soybean seed coats", "setting": "[13]", "result": 5.06, "unit": "μg/seed coat"},
      {"measurement": "Accumulation of soluble carbohydrates in soybean axis", "setting": "[14]", "result": 8.58, "unit": "μg/axis"},
      {"measurement": "Accumulation of soluble carbohydrates in soybean cotyledon", "setting": "[14]", "result": 200.22, "unit": "μg/cotyledon"},
      {"measurement": "Accumulation of soluble carbohydrates in soybean seed coats", "setting": "[14]", "result": 1.08, "unit": "μg/seed coat"},
      {"measurement": "Accumulation of soluble carbohydrates in soybean axis", "setting": "[15]", "result": 12.44, "unit": "μg/axis"},
      {"measurement": "Accumulation of soluble carbohydrates in soybean cotyledon", "setting": "[15]", "result": 312.69, "unit": "μg/cotyledon"},
      {"measurement": "Accumulation of soluble carbohydrates in soybean seed coats", "setting": "[15]", "result": 0, "unit": "μg/seed coat"},
      {"measurement": "Accumulation of soluble carbohydrates in soybean axis", "setting": "[16]", "result": 13.14, "unit": "μg/axis"},
      {"measurement": "Accumulation of soluble carbohydrates in soybean cotyledon", "setting": "[16]", "result": 273.49, "unit": "μg/cotyledon"},
      {"measurement": "Accumulation of soluble carbohydrates in soybean seed coats", "setting": "[16]", "result": 0, "unit": "μg/seed coat"},
      {"measurement": "Accumulation of soluble carbohydrates in soybean axis", "setting": "[17]", "result": 8.02, "unit": "μg/axis"},
      {"measurement": "Accumulation of soluble carbohydrates in soybean cotyledon", "setting": "[17]", "result": 444.34, "unit": "μg/cotyledon"},
      {"measurement": "Accumulation of soluble carbohydrates in soybean seed coats", "setting": "[17]", "result": 8.44, "unit": "μg/seed coat"},
      {"measurement": "Accumulation of soluble carbohydrates in soybean axis", "setting": "[18]", "result": 0.62, "unit": "μg/axis"},
      {"measurement": "Accumulation of soluble carbohydrates in soybean cotyledon", "setting": "[18]", "result": 4.97, "unit": "μg/cotyledon"},
      {"measurement": "Accumulation of soluble carbohydrates in soybean axis", "setting": "[19]", "result": 2.65, "unit": "μg/axis"},
      {"measurement": "Accumulation of soluble carbohydrates in soybean cotyledon", "setting": "[19]", "result": 2.41, "unit": "μg/cotyledon"},
      {"measurement": "change after feeding myo-inositol", "setting": "seed coat of dry seeds (14 days slow drying)", "result": "doubled"}
    ]}
  ]
}
